From patent publication US20170145113A1 (Genentech, published 2017)
No constants are given. Whether binding was seen depends on the method and setting. Some binding calls cover weakened binding; strength is not graded here.

Legend:
[1] = molecular target: T1, murine HtrA3 protease domain (murine, UniProt Q9D236 135-350, limits assumed); assay: ELISA
T1 construct: domain: PD (protease domain); also called muHtrA3-PD; murine HtrA3-PD
T1 sequence (looked up): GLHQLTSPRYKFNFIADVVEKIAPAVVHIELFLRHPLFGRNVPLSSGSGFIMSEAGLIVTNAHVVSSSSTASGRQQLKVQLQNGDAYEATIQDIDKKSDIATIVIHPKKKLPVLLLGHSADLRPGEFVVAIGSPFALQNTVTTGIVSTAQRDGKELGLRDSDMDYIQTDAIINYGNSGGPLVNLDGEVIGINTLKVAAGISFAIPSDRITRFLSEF

[2] = molecular target: T1, murine HtrA3 protease domain; assay: ELISA, hybridoma clone

B1: anti-HtrA1 hybridoma antibody clone 19B12 (antibody, V domains shown)
VH: EVKLVESGGGLVEPGGSLKLACVASGFTFSSYIMSWVRQTPEKRLEWVAYISNGGGTTYYSDTIKGRFTISRDNAKNTLYLQMSTLKSEDTAIYFCARQNFRSDGSSMDYWGQGTAVTVSS
VL: NIVVTQSPASLAVSLGQRATISCRASESVDSYGKSFMHWYQQKPGQPPKLLIYLASKLESGVPARFSGSGSRTDFTLTIDPVEADDAATYYCQQNNEDPYTFGGGTKLEIK
notes: Murine mIgG2a, from hybridoma or recombinant from 293 cells; also called m19B12
binding [1]: binds
binding [2]: binds
